Structures are written as SMILES. Some results come without the dose or concentration used.

The test system of the data set is rat oligodendrocyte progenitor cells. The experiment in a line: Promotive activity of rat oligodendrocyte progenitor cell differentiation-2 (immunostaining of MBP). It counts as cell-based. To be noted: t-test vs DMSO group. On the procedure:
The promotive activity of oligodendrocyte progenitor cell (OPC) differentiation of the vitamin D derivatives was evaluated by immunostaining of MBP.
Subsequently, oligodendrocyte progenitor cell separation medium was added to the flask, and the mixture was similarly shaken for about 22 hours (37° C., 200 rpm), and the supernatant was collected to prepare oligodendrocyte progenitor cells.

For the molecule `C=C1[C@H](O)CC(=C/C=C2\CCC[C@]3(C)[C@@H]([C@H](C)CCN4CCOCC4)CC[C@@H]23)C[C@H]1O` [Compound D024, (1R,3R)-5-(2-((1R,3aS,7aR,E)-7a-methyl-1-((R)-4-morpholinobutan-2-yl)octahydro-4H-inden-4-ylidene)ethylidene)-2-methylenecyclohexane-1,3-diol], under “Test 2”, the Significant difference result is “**** (<0.0001)”.
Take `C[C@H](CN1CCN(C)C[C@@H]1C)[C@H]1CC[C@H]2/C(=C/C=C3C[C@@H](O)C[C@H](O)C3)CCC[C@]12C` [Compound G011, (1R,3R)-5-(2-((1R,3aS,7aR,E)-1-((S)-1-((S)-2,4-dimethylpiperazin-1-yl)propan-2-yl)-7a-methyloctahydro-4H-inden-4-ylidene)ethylidene)cyclohexane-1,3-diol]: where the note is “Test 5”, the Significant difference entry is “** (<0.01)”.
As to `C[C@H](CN1CC[C@@H](CC(F)F)C1)[C@H]1CC[C@H]2/C(=C/C=C3C[C@@H](O)C[C@H](O)C3)CCC[C@]12C` [Compound B043, (1R,3R)-5-(2-((1R,3aS,7aR,E)-1-((S)-1-((S)-3-(2,2-difluoroethyl)pyrrolidin-1-yl)propan-2-yl)-7a-methyloctahydro-4H-inden-4-ylidene)ethylidene)cyclohexane-1,3-diol], the Significant difference result (Test 2) is “**** (<0.0001)”.
Take `C[C@H](CN1CCOCC1(C)C)[C@H]1CC[C@H]2/C(=C/C=C3C[C@@H](O)C[C@H](O)C3)CCC[C@]12C` [Compound G006, (1R,3R)-5-(2-((1R,3aS,7aR,E)-1-((S)-1-(3,3-dimethylmorpholino)propan-2-yl)-7a-methyloctahydro-4H-inden-4-ylidene)ethylidene)cyclohexane-1,3-diol]: where the note is “Test 4”, the Significant difference entry is reported as “**** (<0.0001)”.
Turning to `C[C@H](CN1CC[C@H](C(F)F)C1)[C@H]1CC[C@H]2/C(=C/C=C3C[C@@H](O)C[C@H](O)C3)CCC[C@]12C` [Compound B022, (1R,3R)-5-(2-((1R,3aS,7aR,E)-1-((S)-1-((S)-3-(difluoromethyl)pyrrolidin-1l-yl)propan-2-yl)-7a-methyloctahydro-4H-inden-4-ylidene)ethylidene)cyclohexane-1,3-diol], the Significant difference entry (Test 1) is listed as “**** (<0.0001)”.
For the molecule `C=C1[C@H](O)CC(=C/C=C2\CCC[C@]3(C)[C@@H]([C@H](C)CN4CCCC[C@H]4C)CC[C@@H]23)C[C@H]1O` [Compound H002, (1R,3R)-5-(2-((1R,3aS,7aR,E)-7a-methyl-1-((S)-1-((R)-2-methylpiperidin-1-yl)propan-2-yl)octahydro-4H-inden-4-ylidene)ethylidene)-2-methylenecyclohexane-1,3-diol], the Significant difference result (Test 9) is recorded as “**** (<0.0001)”.
With `C[C@H](CCN1CCCC[C@@H]1C)[C@H]1CC[C@H]2/C(=C/C=C3C[C@@H](O)C[C@H](O)C3)CCC[C@]12C` [Compound G017, (1R,3R)-5-(2-((1R,3aS,7aR,E)-7a-methyl-1-((R)-4-((S)-2-methylpiperidin-1-yl)butan-2-yl)octahydro-4H-inden-4-ylidene)ethylidene)cyclohexane-1,3-diol], the Significant difference result (Test 6) was “**** (<0.0001)”.
As to `C=C1[C@H](O)CC(=C/C=C2\CCC[C@]3(C)[C@@H]([C@H](C)CN4CCN(C)C[C@H]4C)CC[C@@H]23)C[C@H]1O` [Compound H012, (1R,3R)-5-(2-((1R,3aS,7aR,E)-1-((S)-1-((R)-2,4-dimethylpiperazin-1-yl)propan-2-yl)-7a-methyloctahydro-4H-inden-4-ylidene)ethylidene)-2-methylenecyclohexane-1,3-diol], the Significant difference entry (Test 7) was “** (<0.01)”.
As to `C=C1/C(=C\C=C2/CCC[C@]3(C)[C@@H]([C@H](C)CN4CC[C@H](CC(F)F)C4)CC[C@@H]23)C[C@@H](O)C[C@@H]1O` [Compound B036, (1R,3S,Z)-5-(2-((1R,3aS,7aR,E)-1-((S)-1-((R)-3-(2,2-difluoroethyl)pyrrolidin-1-yl)propan-2-yl)-7a-methyloctahydro-4H-inden-4-ylidene)ethylidene)-4-methylcyclohexane-1,3-diol], the Significant difference entry (Test 1) was “**** (<0.0001)”.
In the case of `C=C1/C(=C\C=C2/CCC[C@]3(C)[C@@H]([C@H](C)CN4CCOCC4(C)C)CC[C@@H]23)C[C@@H](O)C[C@H]1O` [Compound I006, (1R,3R,Z)-5-(2-((1R,3aS,7aR,E)-1-((S)-1-(3,3-dimethylmorpholino)propan-2-yl)-7a-methyloctahydro-4H-inden-4-ylidene)ethylidene)-4-methylenecyclohexane-1,3-diol], for the setting “Test 4”, the Significant difference result is reported as “**** (<0.0001)”.
Take `C=C1[C@H](O)CC(=C/C=C2\CCC[C@]3(C)[C@@H]([C@H](C)CN4CC[C@@H](C(F)F)C4)CC[C@@H]23)C[C@H]1O` [Compound B027, (1R,3R)-5-(2-((1R,3aS,7aR,E)-1-((S)-1-((R)-3-(difluoromethyl)pyrrolidin-1-yl)propan-2-yl)-7a-methyloctahydro-4H-inden-4-ylidene)ethylidene)-2-methylenecyclohexane-1,3-diol]: under “Test 1”, the Significant difference entry is reported as “**** (<0.0001)”.
As for `C[C@H](CN1CCOC[C@@H]1C1CC1)[C@H]1CC[C@H]2/C(=C/C=C3C[C@@H](O)C[C@H](O)C3)CCC[C@]12C` [Compound G008, (1R,3R)-5-(2-((1R,3aS,7aR,E)-1-((S)-1-((S)-3-cyclopropylmorpholino)propan-2-yl)-7a-methyloctahydro-4H-inden-4-ylidene)ethylidene)cyclohexane-1,3-diol], the Significant difference result (Test 5) is “**** (<0.0001)”.
As for `C=C1[C@H](O)CC(=C/C=C2\CCC[C@]3(C)[C@@H]([C@H](C)CN4CCCC(O)(C(F)F)C4)CC[C@@H]23)C[C@H]1O` (single isomer, unassigned) [Compound C036b], where the note is “Test 2”, the Significant difference result was “*** (<0.001)”.
As to `C=C1/C(=C\C=C2/CCC[C@]3(C)[C@@H]([C@H](C)CN4CCCC[C@H]4C)CC[C@@H]23)C[C@@H](O)C[C@H]1O` [Compound I002, (1R,3R,Z)-5-(2-((1R,3aS,7aR,E)-7a-methyl-1-((S)-1-((R)-2-methylpiperidin-1-yl)propan-2-yl)octahydro-4H-inden-4-ylidene)ethylidene)-4-methylenecyclohexane-1,3-diol], the Significant difference entry (Test 9) is given as “**** (<0.0001)”.
As for `C[C@H](CN1CC[C@H](OCC(F)F)C1)[C@H]1CC[C@H]2/C(=C/C=C3C[C@@H](O)C[C@H](O)C3)CCC[C@]12C` [Compound B057, (1R,3R)-5-(2-((1R,3aS,7aR,E)-1-((S)-1-((S)-3-(2,2-difluoroethoxy)pyrrolidin-1-yl)propan-2-yl)-7a-methyloctahydro-4H-inden-4-ylidene)ethylidene)cyclohexane-1,3-diol], the Significant difference entry (Test 2) was “**** (<0.0001)”.
With `C[C@H](CN1CCOC[C@@H]1C)[C@H]1CC[C@H]2/C(=C/C=C3C[C@@H](O)C[C@H](O)C3)CCC[C@]12C` [Compound G004, (1R,3R)-5-(2-((1R,3aS,7aR,E)-7a-methyl-1-((S)-1-((S)-3-methylmorpholino)propan-2-yl)octahydro-4H-inden-4-ylidene)ethylidene)cyclohexane-1,3-diol], the Significant difference result (Test 3) was “**** (<0.0001)”.
Consider `C=C1/C(=C\C=C2/CCC[C@]3(C)[C@@H]([C@H](C)CN4CC[C@@H](CC(F)F)C4)CC[C@@H]23)C[C@@H](O)C[C@@H]1O` [Compound B037, (1R,3S,Z)-5-(2-((1R,3aS,7aR,E)-1-((S)-1-((S)-3-(2,2-difluoroethyl)pyrrolidin-1-yl)propan-2-yl)-7a-methyloctahydro-4H-inden-4-ylidene)ethylidene)-4-methylenecyclohexane-1,3-diol], for which, where the note is “Test 1”, the Significant difference result is recorded as “**** (<0.0001)”.
As for `C=C1/C(=C\C=C2/CCC[C@]3(C)[C@@H]([C@H](C)CN4CCCC[C@@H]4C)CC[C@@H]23)C[C@@H](O)C[C@H]1O` [Compound I001, (1R,3R,Z)-5-(2-((1R,3aS,7aR,E)-7a-methyl-1-((S)-1-((S)-2-methylpiperidin-1-yl)propan-2-yl)octahydro-4H-inden-4-ylidene)ethylidene)-4-methylenecyclohexane-1,3-diol], the Significant difference entry (Test 9) was “*** (<0.001)”.
For `C[C@H](CN1CCC[C@@H]1C(C)(C)O)[C@H]1CC[C@H]2/C(=C/C=C3C[C@@H](O)C[C@H](O)C3)CCC[C@]12C` [Compound G013, (1R,3R)-5-(2-((1R,3aS,7aR,E)-1-((S)-1-((R)-2-(2-hydroxypropan-2-yl)pyrrolidin-1-yl)propan-2-yl)-7a-methyloctahydro-4H-inden-4-ylidene)ethylidene)cyclohexane-1,3-diol], the Significant difference result (Test 6) is reported as “**** (<0.0001)”.
As to `C=C1[C@H](O)CC(=C/C=C2\CCC[C@]3(C)[C@@H]([C@H](C)CN4CC[C@H](OCC(F)F)C4)CC[C@@H]23)C[C@H]1O` [Compound B055, (1R,3R)-5-(2-((1R,3aS,7aR,E)-1-((S)-1-((S)-3-(2,2-difluoroethoxy)pyrrolidin-1-yl)propan-2-yl)-7a-methyloctahydro-4H-inden-4-ylidene)ethylidene)-2-methylenecyclohexane-1,3-diol], under “Test 2”, the Significant difference result was “**** (<0.0001)”.
Same read-out and setting: the same measure for `C[C@H](CCN1CCOCC1)[C@H]1CC[C@H]2/C(=C/C=C3C[C@@H](O)C[C@H](O)C3)CCC[C@]12C` [Compound D023, (1R,3R)-5-(2-((1R,3aS,7aR,E)-7a-methyl-1-((R)-4-morpholinobutan-2-yl)octahydro-4H-inden-4-ylidene)ethylidene)cyclohexane-1,3-diol]: “**** (<0.0001)”.
Take `C[C@H](CN1CCCC[C@H]1C)[C@H]1CC[C@H]2/C(=C/C=C3C[C@@H](O)C[C@H](O)C3)CCC[C@]12C` [Compound G002, (1R,3R)-5-(2-((1R,3aS,7aR,E)-7a-methyl-1-((S)-1-((R)-2-methylpiperidin-1-yl)propan-2-yl)octahydro-4H-inden-4-ylidene)ethylidene)cyclohexane-1,3-diol]: the Significant difference entry (Test 3) is recorded as “**** (<0.0001)”.

These data come from patent US20250195488A1, “MEDICINE CONTAINING VITAMIN D DERIVATIVE OR PHARMACEUTICALLY ACCEPTABLE SALT OR SOLVATE THEREOF, USED IN COMBINATION WITH IMMUNOMODULATORY SUBSTANCE” (TEEJIN PHARMA LIMITED, priority 2022, published 2025).
